Experimental data from paper PMC4447272.
Results are given in words; binding and its absence hold for the method and conditions named. Some results given as binding are weak or reduced against the parent protein; the word gives no strength.

How the values were obtained:
[1] = molecular target: Major royal jelly protein 1 (MRJP1) (Apis merifera (so in the source); Apis mellifera)) (UniProt O18330); assay: SEC; Superose 12 size-exclusion HPLC in PBS; MRJP1 oligomer heated at 56°C for 30 min; both purified
[2] = molecular target: Major royal jelly protein 1 (MRJP1) (Apis merifera (so in the source); Apis mellifera)) (UniProt O18330); assay: native gel or EMSA; Blue native-PAGE, 4-16% bis-Tris gel, 5 ug protein, CBB staining; unheated MRJP1 oligomer; both purified
[3] = molecular target: Major royal jelly protein 1 (MRJP1) (Apis merifera (so in the source); Apis mellifera)) (UniProt O18330); assay: SEC; Sephacryl S-200 size-exclusion HPLC in phosphate buffer saline (150 mM NaCl, pH 7.4); unheated MRJP1 oligomer from royal jelly; both purified

binding [1]: binds
binding [2]: binds
binding [3]: binds
B1: Major royal jelly protein 1 (MRJP1) (protein, UniProt O18330 20-432)
chain: NILRGESLNKSLPILHEWKFFDYDFGSDERRQDAILSGEYDYKNNYPSDIDQWHDKIFVTMLRYNGVPSSLNVISKKVGDGGPLLQPYPDWSFAKYDDCSGIVSASKLAIDKCDRLWVLDSGLVNNTQPMCSPKLLTFDLTTSQLLKQVEIPHDVAVNATTGKGRLSSLAVQSLDCNTNSDTMVYIADEKGEGLIVYHNSDDSFHRLTSNTFDYDPKFTKMTIDGESYTAQDGISGMALSPMTNNLYYSPVASTSLYYVNTEQFRTSDYQQNDIHYEGVQNILDTQSSAKVVSKSGVLFFGLVGDSALGCWNEHRTLERHNIRTVAQSDETLQMIASMKIKEALPHVPIFDRYINREYILVLSNKMQKMVNNDFNFDDVNFRIMNANVNELILNTRCENPDNDRTPFKISIHL
